Test results published in publication PMC11324303.

By UniProt entry, the sequences of proteins in these tests, tags left out. Residues count along the entry.
UniProt O14786, residues 22-923: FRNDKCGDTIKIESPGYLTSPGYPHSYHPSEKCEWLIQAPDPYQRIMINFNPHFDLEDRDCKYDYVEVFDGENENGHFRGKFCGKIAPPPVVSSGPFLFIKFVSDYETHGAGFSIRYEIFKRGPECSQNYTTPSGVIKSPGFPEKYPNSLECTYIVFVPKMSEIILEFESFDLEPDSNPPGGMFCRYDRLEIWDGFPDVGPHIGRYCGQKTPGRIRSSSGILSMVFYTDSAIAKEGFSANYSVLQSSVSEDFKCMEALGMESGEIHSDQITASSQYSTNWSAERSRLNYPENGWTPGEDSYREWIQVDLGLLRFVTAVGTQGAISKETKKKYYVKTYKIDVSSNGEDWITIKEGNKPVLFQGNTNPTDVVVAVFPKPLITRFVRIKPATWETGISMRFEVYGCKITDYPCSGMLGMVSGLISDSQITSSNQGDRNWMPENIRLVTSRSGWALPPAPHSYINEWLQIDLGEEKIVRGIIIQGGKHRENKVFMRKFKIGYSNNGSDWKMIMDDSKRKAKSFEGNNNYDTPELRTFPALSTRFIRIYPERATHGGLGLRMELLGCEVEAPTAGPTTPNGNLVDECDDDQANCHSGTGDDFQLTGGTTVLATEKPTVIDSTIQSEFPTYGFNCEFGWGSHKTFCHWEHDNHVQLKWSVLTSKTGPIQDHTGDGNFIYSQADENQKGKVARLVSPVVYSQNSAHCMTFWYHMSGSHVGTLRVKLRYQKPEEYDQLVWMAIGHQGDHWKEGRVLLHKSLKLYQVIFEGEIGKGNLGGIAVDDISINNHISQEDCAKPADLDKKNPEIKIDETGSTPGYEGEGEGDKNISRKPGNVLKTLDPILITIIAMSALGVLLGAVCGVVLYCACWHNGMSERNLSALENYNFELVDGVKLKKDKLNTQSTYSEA

Target: T1, SLC44A2 (human (endogenous in HASMCs)) (UniProt Q8IWA5)
T1 sequence: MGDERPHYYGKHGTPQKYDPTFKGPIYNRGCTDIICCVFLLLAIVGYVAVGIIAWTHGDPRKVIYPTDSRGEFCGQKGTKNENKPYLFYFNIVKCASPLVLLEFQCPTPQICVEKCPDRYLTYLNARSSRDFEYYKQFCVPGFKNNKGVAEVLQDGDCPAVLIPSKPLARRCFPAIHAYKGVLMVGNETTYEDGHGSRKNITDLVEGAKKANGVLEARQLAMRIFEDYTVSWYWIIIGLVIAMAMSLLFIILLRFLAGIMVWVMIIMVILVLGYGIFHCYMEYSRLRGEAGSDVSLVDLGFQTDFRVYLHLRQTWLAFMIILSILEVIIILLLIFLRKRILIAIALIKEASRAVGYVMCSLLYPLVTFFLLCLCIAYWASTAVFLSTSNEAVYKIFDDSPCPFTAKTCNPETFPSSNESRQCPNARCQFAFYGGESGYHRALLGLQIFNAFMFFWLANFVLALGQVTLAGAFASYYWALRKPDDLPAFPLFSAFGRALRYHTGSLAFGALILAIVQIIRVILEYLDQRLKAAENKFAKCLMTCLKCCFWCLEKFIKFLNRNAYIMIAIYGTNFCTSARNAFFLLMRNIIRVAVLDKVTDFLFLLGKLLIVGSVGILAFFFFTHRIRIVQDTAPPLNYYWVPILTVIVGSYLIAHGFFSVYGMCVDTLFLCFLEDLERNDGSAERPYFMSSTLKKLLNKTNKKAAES
Experiment: affinity purification with mass spectrometry; HASMC lysates immunoprecipitated with anti-SLC44A2 antibody, then mass spectrometry

Substance: neuropilin-1 (NRP1) (from UniProt O14786 22-923) (receptor)
- binding: binds

Results are given in words; binding and its absence hold for the method and conditions named. Binding seen in cells or lysates may run through a third protein. These calls come from enrichment with a bait or labelling near it, and not all partners need be listed.
